System: activated sludge (microbial inoculum)
Test: Aerobic biodegradability in water containing mineral salts and activated sludge (CO2 evolution, DOC)
Method: A maleinized ester derivative in the form of hydrogenated 1-pentyl triester of maleinated-9-dodecene methyl ester (hereinafter the “test substance”) is evaluated for aerobic biodegradability in water containing mineral salts and activated sludge. The activated sludge is taken from a wastewater treatment plant and is used as a source of microbial inoculum. The objectives of the study are: 1) to evaluate the biodegradability (mineralization to CO2 production) potential of the test substance in an aerobic, aqueous medium; and 2) to determine the mineralization potential of a reference chemical in order to assess the viability of the test inoculum.
Approximately one liter of activated sludge is used as the microbial inoculum. The sludge is collected from the Columbia Wastewater Plant in Columbia, Miss. This plant treats predominately domestic sewage.
An aqueous mineral salts medium provides essential mineral nutrients and trace elements necessary to sustain the inoculum throughout the test period. The mineral salts medium is prepared by addition of reagent grade salts to reagent water. The mineral salts include salts of K, Na, NHa, Ca, Mg and Fe. The pH of the mineral salts medium is 7.27.
Each test system consists of a 5-L Pyrex carboy (reaction flask or vessel) containing a 3.0 L test solution volume comprised of mineral salts medium, prepared microbial inoculum, reagent water, and the appropriate test and/or reference substance additions. Outside air is passed through a pre-trap containing 500 mL of approximately 5 N KOH. The air is then passed through approximately 500 mL of reagent water to humidify the air, as well as to prevent contamination of the flasks from the KOH pre-trap. The CO2-free and humidified air is then passed through the reaction flasks.
The CO2-free air is introduced into each flask by positive pressure, and the flow rates (50-100 mL/minute) are measured and adjusted using flow meters. The outlet from each flask is connected to three CO2 absorber gas-washing traps in series, each filled with 100 mL of 0.2 N KOH solution. These traps capture the CO2 evolved from the reaction flasks. A magnetic stir bar is placed in each flask. The flasks are placed on insulated magnetic stir plates and stirred throughout the duration of the study. The test systems are kept in the dark (except for sampling and maintenance) in a temperature-controlled environmental chamber set at 22° C. Temperature of the chamber is continuously measured using a Rees Scientific temperature monitoring system.
The activated sludge is homogenized in a blender at a medium speed for two minutes. The homogenized sludge is allowed to settle for 30 to 60 minutes then filtered through glass wool. A volume of 30 mL of the filtrate is used as the inoculum for each reaction flask.
One day prior to dosing, six test systems are assembled. Each 5-L carboy receives 2,400 mL of mineral salts medium and 30 mL of the prepared activated sludge. Stirring and aeration with CO2-free air at approximately 90 mL/minute is started for each flask. The flasks are allowed to aerate overnight to purge the systems of CO2 before initiation of the test (dosing on Day 0).
Duplicate test substance systems are prepared by adding 570 mL of reagent water and approximately 42.2 mg (dosed gravimetrically) of the test substance to two of the 5-L carboys. The nominal concentration of carbon from the test substance in the final volume of 3,000 mL of solution is 10 mg C/L. […]

Structure (SMILES): O=C([O-])c1ccccc1.[Na+] [reference substance, sodium benzoate, reference compound]
- corrected DOC concentration at study initiation (Day 0): 21.0 mg C/L
- DOC removal (Day 0 to Day 28): 100%
- % ThCO2 (Day 9, single system): 67.2%
- corrected DOC concentration at termination (Day 28): 0.00 mg C/L
- % ThCO2 (through Day 29, single system): 73.7%
